# Laboratory results: the supplement of paper PMC3334620
# Whole data set: some 33,000 sequences, median “E-score (-0.5 to 0.5)” near -0.0059, cut for the highest 2% near 0.26. Some of the results follow.
# Biological target: T1, Cin5 (UniProt P40917)
# T1 sequence: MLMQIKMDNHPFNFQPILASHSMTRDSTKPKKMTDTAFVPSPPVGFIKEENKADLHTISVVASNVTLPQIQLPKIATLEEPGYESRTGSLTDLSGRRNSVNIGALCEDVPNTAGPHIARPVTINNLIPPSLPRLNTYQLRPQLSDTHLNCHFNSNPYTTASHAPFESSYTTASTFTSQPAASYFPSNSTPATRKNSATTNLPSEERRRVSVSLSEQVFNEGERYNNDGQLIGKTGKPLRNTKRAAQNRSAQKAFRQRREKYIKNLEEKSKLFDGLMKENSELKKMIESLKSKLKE
# Experiment: PBM E-score (8-mer binding enrichment) (E-score (-0.5 to 0.5)); higher = stronger / more preferred TF binding
# Conditions: protein concentration: 100 nM; construct: GST-full length
# Summary of the method: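 E-scores (a modified Wilcoxon-Mann-Whitney statistic) were assigned by the Universal PBM Analysis Suite to every ungapped eight-base word pooled with its reverse complement. The input came from universal all-10-mer Agilent arrays made double-stranded by primer extension and probed with GST-tagged yeast transcription factors at about 100-200 nM. Fluorescent anti-GST detected bound protein, and masliner normalised the scans.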
row,Sequence,PBM E-score
1,CAATTGAC,0.0562
2,CTCGAACA,-0.0292
3,ACTCATGG,0.113
4,AGGGGCTG,0.0194
5,ATTTCTTC,0.0613
6,AGATGAAG,-0.21
7,GGCAACCA,-0.0499
8,GCCTGTTA,0.00827
9,ACAAATTC,0.183
10,CAATCGGC,0.00797
11,CAGTATTC,0.144
12,CCAAGCTC,0.0192
13,CACAATAA,0.0141
14,CCTGACAG,-0.0301
15,GCCGCACC,-0.119
16,GCCAAACA,-0.00747
17,TGTGCCAA,0.123
18,GCCGAAAA,0.111
19,CTGTACGC,-0.108
20,CTAGTGCA,0.104
21,AGTCAACT,-0.157
22,GCTCGGCC,-0.284

row,Sequence,PBM E-score
1,GCAAAGCA,-0.182
2,CTATCGAC,-0.227
3,AATCGGGA,0.0847
4,ACAGTACT,-0.0867
5,CTCCCGTC,0.0274
6,AGGGCTCA,-0.294
7,CCTATCTC,0.0294
8,CTGGAGCA,-0.0335
9,GACGGCTC,-0.225
10,TATGGCAA,0.0984
11,AAATACCC,0.126
12,AAGCTTGT,0.101
13,CGAGCTTA,0.0596
14,CCTGATCC,-0.0141
15,GCCGTCAA,-0.118
16,AGCGACAA,0.0318
17,AAGGTTTG,0.0882
18,GTTTGGCA,-0.131
19,CTTCTGCC,-0.064
20,AAGTTCGA,0.105
21,ATGCCTGC,-0.111
22,CTACGTAA,0.24

row,Sequence,PBM E-score
1,ATGGAGGC,-0.119
2,CATACAGA,0.0894
3,AGGGCGGA,-0.186
4,ACCAAGTG,-0.209
5,AGGGACTC,-0.333
6,CGTGTCCA,-0.181
7,GATTAAAC,0.115
8,AGAACCTG,-0.127
9,ATGTCGTA,0.0328
10,TAACGATA,0.22
11,ATATTTCC,0.11
12,CCTGTCCC,-0.315
13,AATGGTGT,0.0703
14,TATGCCGA,0.0576
15,TGATCGAA,0.0734
16,GTCGGCGA,-0.23
17,CAGCTCAG,0.0758
18,ATTCGAAG,0.0877
19,TAGAGCAA,-0.0369
20,AGCTAAAA,-0.0663
21,ATGGCATG,0.0725
22,ACAGCCTC,-0.238

# As a working copy, part of the list above.
row,Sequence,PBM E-score
1,ATGGAGGC,-0.119
2,CATACAGA,0.0894
3,AGGGCGGA,-0.186
4,ACCAAGTG,-0.209
5,AGGGACTC,-0.333
6,CGTGTCCA,-0.181
7,GATTAAAC,0.115
8,AGAACCTG,-0.127
9,ATGTCGTA,0.0328
10,TAACGATA,0.22
11,ATATTTCC,0.11
12,CCTGTCCC,-0.315
13,AATGGTGT,0.0703
14,TATGCCGA,0.0576
15,TGATCGAA,0.0734
16,GTCGGCGA,-0.23

# (cont.)

row,Sequence,PBM E-score
1,CATTTTAG,0.137
2,CGCTCCAC,-0.165
3,TCTTTACA,0.187
4,GGTTCGTA,0.142
5,CCCTTCAC,-0.159
6,CTTTTGTC,0.0908
7,TATCACAA,0.18
8,CTGCCGTA,-0.12
9,GCACCATA,0.0072
10,GACCCTAC,-0.109
11,GGTCGAAA,-0.0987
12,AGGGCCTC,-0.297
13,CGCGGTAA,0.0578
14,AAGGCTGT,-0.197
15,ATAGCGAT,0.0976
16,GGTACTCA,0.0119
17,TCGATGAA,0.108
18,ATTCTCTC,0.0677
19,ATCATCAA,0.145
20,AAGTGAGA,-0.0435
